Experiment: Intra-day and inter-day accuracy of quantitation of MTX and MTXPGs spiked in RBC extracts (conversion to MTX, HPLC with post-column photolysis and fluorimetry)
Source text: The MTX detection system was based on an HPLC system (Agilent 1100 HPLC chemstation system) equipped with a C18 reversed phase column (25 cm×4.6 mm X Terra MS C18, 5 micrometer particle size; Waters, Milford, Mass.), a post-column photochemical reactor unit (Aura Industries; New York, N.Y.) and a post-reactor unit fluorometer detector. The system also included a C18 pre-column that was changed every 200 injections.
Samples containing 20 to 1000 nmol/L MTX (Sigma, St. Louis, USA) in RBC extracts were run in the HPLC system at a flow rate of 1 ml/min, with a 15-minute linear gradient from 2% acetonitrile/98% mobile phase A (10 mM ammonium acetate, pH 6.5, unless otherwise indicated and 0.2% hydrogen peroxide in water) to 25% acetonitrile/75% mobile phase A, unless otherwise indicated. After 15 minutes, mobile phase was returned to 100% mobile phase A and the column was re-equilibrated for 5 minutes. The samples were maintained at 4° C. and injected every 20 minutes with an autoinjector.
Eluate from the column passed through the photochemical reactor unit in TEFLON™ tubing ( 1/16 inch outer diameter, 0.25 mm inner diameter, 8 meter length) that was connected on-line after the column and before the fluorometer detector and assembled as a knitted coil. The knitted coil was extended lengthwise through the photochemical reactor unit which also housed an elongated 254 nm low pressure mercury ultraviolet lamp (Aura Industries; New York, N.Y.). The time of irradiation of MTX in the photochemical reactor was 24 seconds. Irradiation for less than 24 seconds was achieved by masking all but a portion of the elongated lamp with foil such that only a portion of the knitted coil was irradiated. In particular, the lamp was masked such that only 1 meter of the coil was irradiated with the lamp which at a flow rate of 1 ml/min corresponded to 3 seconds irradiation. Methotrexate photolytic products were measured at an excitation wavelength set at 400 nm and an emission wavelength at 470 nm, unless otherwise indicated. Chromatograms were acquired and analyzed on a Hewlett-Packard Vector XA computer. The retention times described herein for the above-described HPLC system were measured from the time of injection to time of detection at the post-reactor unit fluorometer detector.
MTXPGs were enzymatically converted to MTX by incubation with RBC extract and plasma as follows. RBCs were isolated from healthy donors (Blood bank; San Diego, Calif.) Hemolysates were prepared having 0.88×10^9 RBC per 100 μl. For spiked samples, MTXPG (Schirks Laboratories; Jona, Switzerland) was added to RBC extracts at a final concentration of 1 μM (from stock solutions containing 100 μM MTXPG in 0.1 N potassium hydroxide). Reconstituted plasma was prepared from lyophilized plasma (Sigma, St. Louis, USA; Cat. No. P9523) and 100 μl was added to 50 μl of RBC extract, mixed for 30 seconds, and 100 μl of buffer containing 100 mM potassium phosphate pH 4.5 and 150 mM mercaptoethanol was added. […] Samples were incubated for 12-14 hours, unless otherwise indicated, in the dark at 37° C. After incubation 30 μl of 70% perchloric acid was added to the mixture, vortexed for 15 seconds and centrifuged for 10 minutes. A total volume of 80 μl was injected onto the HPLC system for analysis using the MTX detection system described in Example I.
The intra-day accuracy and inter-day accuracy for quantitation of MTX and MTXPGs are shown in Table I. RBC extracts were incubated with 20, 100 or 500 nmol/L of MTX, MTXPG2 or MTXPG2-7 (Target concentrations; see Table I), and the observed concentration of MTX was determined by the HPLC method described in Example I. For the intra-day accuracy assessment, the mean observed MTX concentration was determined for 10 spiked replicates at each target concentration (see Table I). The mean observed MTX concentrations for inter-day accuracy assessment were based on three replicates from five different days (Table 1). […]

[1] = Inter-day (n = 5), target conc. 50.0 nmol/L
[2] = Inter-day (n = 5), target conc. 250.0 nmol/L
[3] = Inter-day (n = 5), target conc. 500.0 nmol/L
[4] = Intra-day (n = 10), target conc. 50.0 nmol/L
[5] = Intra-day (n = 10), target conc. 250.0 nmol/L
[6] = Intra-day (n = 10), target conc. 500.0 nmol/L

Row | SMILES | Mean accuracy of target value [1] [%] | Mean observed MTXPG1 conc. [1] [nmol/L] | Mean accuracy of target value [2] [%] | Mean observed MTXPG1 conc. [2] [nmol/L] | Mean accuracy of target value [3] [%] | Mean observed MTXPG1 conc. [3] [nmol/L] | Mean accuracy of target value [4] [%] | Mean observed MTXPG1 conc. [4] [nmol/L] | Mean accuracy of target value [5] [%] | Mean observed MTXPG1 conc. [5] [nmol/L] | Mean accuracy of target value [6] [%] | Mean observed MTXPG1 conc. [6] [nmol/L]
1 | CN(Cc1cnc2nc(N)nc(N)c2n1)c1ccc(C(=O)N[C@@H](CCC(=O)O)C(=O)O)cc1 [MTX, methotrexate] | 97.9 | 48.9 | 104.3 | 260.8 | 103.5 | 517.3 | 90.0 | 45.0 | 100.1 | 250.2 | 100.8 | 504.2
2 | CN(Cc1cnc2nc(N)nc(N)c2n1)c1ccc(C(=O)N[C@@H](CCC(=O)N[C@@H](CCC(=O)O)C(=O)O)C(=O)O)cc1 [MTXPG2] | 97.7 | 48.8 | 95.4 | 238.5 | 98.2 | 490.8 | 96.4 | 48.2 | 92.5 | 231.1 | 94.6 | 473.2

From patent US7563590B2, “Methods of quantifying methotrexate metabolites” (Cypress Bioscience Inc., priority 2002, dated 2009)
